Test results taken from article PMC12518693, “Potent Fluorescent Probe for Target‐Engagement Studies of Allosteric Pyruvate Kinase Modulators” (Angewandte Chemie (International Ed. in English), 2025).

Assay: Spectroscopic properties (UV-vis fluorescence spectroscopy)
Assay type: physicochemical
Settings: excitation at 420 nm

| SMILES | Φf (MeCN) | Φf (Tris-HCl buffer) |
| --- | --- | --- |
| CN(C)c1ccc(S(=O)(=O)c2ccc3c(=O)n(CC(C)(C)C)ncc3c2)c2nonc12 [Compound III, 6-((7-(Dimethylamino)benzo[c][1,2,5]oxadiazol-4-yl)sulfonyl)-2-neopentylphthalazin-1(2H)-one] | 5.3% |  |
| CN(C)c1ccc(S(=O)(=O)c2ccc3c(=O)n(Cc4ccccc4)ncc3c2)c2nonc12 [Compound II, 2-Benzyl-6-((7-(dimethylamino)benzo[c][1,2,5]oxadiazol-4-yl)sulfonyl)phthalazin-1(2H)-one] | 5.6% |  |
| CN(C)c1ccc(S(=O)(=O)c2ccc3c(=O)n(Cc4cc[nH]n4)ncc3c2)c2nonc12 [Compound IV, 2-((1H-Pyrazol-3-yl)methyl)-6-((7-(dimethylamino)benzo[c][1,2,5]oxadiazol-4-yl)sulfonyl)phthalazin-1(2H)-one] | 1.5% and 5.3% | 5.3% and 1.5% |

Several values for one entry are separate records, joined by “and”; a condition that tells them apart may be missing. Equal values may be shown once.
